These are yes or no findings as the source states them, for the method shown. In cells and extracts the contact can be indirect. Some binding calls cover weakened binding; strength is not graded here.
How the values were obtained:
[1] = target: HHV5-UL97 (human cytomegalovirus (human herpesvirus 5, HHV5)) (UniProt P16788); assay: co-IP; co-immunoprecipitation experiments with pUL97 (Supplementary Fig. 3c–f); bait not given
[2] = target: Cyclin A (human (endogenous in HEK-293T)) (UniProt P20248); assay: co-IP

By UniProt entry, the sequences of proteins in these tests, tags left out.
UniProt P16788: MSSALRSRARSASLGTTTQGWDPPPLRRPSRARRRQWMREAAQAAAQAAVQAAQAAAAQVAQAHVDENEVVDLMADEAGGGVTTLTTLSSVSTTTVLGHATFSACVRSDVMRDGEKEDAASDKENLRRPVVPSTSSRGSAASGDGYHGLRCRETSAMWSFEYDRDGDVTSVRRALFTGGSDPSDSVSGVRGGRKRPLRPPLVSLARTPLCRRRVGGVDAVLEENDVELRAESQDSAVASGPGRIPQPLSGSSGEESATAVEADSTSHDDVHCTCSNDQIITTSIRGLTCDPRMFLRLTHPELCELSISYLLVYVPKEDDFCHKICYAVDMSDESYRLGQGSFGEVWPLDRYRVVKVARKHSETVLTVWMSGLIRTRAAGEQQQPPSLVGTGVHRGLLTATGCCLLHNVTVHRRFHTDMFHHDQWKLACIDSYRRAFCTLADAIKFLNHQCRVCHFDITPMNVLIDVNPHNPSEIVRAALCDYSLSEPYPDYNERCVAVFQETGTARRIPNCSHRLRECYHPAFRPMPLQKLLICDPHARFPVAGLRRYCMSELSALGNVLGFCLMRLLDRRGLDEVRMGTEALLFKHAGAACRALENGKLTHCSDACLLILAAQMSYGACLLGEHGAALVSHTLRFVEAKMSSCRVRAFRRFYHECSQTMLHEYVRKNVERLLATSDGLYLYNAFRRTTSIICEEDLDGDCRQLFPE
UniProt P20248: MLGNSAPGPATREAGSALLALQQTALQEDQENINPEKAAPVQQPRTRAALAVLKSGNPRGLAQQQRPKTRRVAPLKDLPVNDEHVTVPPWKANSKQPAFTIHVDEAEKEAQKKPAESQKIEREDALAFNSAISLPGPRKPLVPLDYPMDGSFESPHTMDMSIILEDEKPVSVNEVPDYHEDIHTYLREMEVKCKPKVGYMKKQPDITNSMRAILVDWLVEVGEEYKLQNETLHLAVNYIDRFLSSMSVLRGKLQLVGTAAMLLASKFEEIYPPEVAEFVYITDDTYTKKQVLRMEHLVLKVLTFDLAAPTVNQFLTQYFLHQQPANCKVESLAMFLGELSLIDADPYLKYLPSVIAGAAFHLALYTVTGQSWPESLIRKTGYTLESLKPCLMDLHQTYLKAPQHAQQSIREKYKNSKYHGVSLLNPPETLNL
UniProt P35226: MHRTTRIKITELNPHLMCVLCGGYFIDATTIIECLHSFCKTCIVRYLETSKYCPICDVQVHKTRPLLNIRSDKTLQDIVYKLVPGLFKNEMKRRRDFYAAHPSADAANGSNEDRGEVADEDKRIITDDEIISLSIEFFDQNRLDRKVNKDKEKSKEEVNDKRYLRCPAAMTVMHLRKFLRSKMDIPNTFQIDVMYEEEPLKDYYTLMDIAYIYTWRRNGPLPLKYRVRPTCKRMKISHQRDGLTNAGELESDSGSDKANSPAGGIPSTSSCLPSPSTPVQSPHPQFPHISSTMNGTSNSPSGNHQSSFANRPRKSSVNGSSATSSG
UniProt O43791: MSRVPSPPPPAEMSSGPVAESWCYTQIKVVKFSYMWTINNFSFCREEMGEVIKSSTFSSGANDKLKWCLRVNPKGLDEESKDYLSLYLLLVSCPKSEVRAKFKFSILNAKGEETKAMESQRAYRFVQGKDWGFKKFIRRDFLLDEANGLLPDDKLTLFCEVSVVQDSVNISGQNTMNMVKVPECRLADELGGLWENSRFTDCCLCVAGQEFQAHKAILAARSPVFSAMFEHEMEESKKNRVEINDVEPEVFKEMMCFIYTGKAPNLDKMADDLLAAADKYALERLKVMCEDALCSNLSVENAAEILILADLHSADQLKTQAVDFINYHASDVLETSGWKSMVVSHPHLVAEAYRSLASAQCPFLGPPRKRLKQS
UniProt Q13263: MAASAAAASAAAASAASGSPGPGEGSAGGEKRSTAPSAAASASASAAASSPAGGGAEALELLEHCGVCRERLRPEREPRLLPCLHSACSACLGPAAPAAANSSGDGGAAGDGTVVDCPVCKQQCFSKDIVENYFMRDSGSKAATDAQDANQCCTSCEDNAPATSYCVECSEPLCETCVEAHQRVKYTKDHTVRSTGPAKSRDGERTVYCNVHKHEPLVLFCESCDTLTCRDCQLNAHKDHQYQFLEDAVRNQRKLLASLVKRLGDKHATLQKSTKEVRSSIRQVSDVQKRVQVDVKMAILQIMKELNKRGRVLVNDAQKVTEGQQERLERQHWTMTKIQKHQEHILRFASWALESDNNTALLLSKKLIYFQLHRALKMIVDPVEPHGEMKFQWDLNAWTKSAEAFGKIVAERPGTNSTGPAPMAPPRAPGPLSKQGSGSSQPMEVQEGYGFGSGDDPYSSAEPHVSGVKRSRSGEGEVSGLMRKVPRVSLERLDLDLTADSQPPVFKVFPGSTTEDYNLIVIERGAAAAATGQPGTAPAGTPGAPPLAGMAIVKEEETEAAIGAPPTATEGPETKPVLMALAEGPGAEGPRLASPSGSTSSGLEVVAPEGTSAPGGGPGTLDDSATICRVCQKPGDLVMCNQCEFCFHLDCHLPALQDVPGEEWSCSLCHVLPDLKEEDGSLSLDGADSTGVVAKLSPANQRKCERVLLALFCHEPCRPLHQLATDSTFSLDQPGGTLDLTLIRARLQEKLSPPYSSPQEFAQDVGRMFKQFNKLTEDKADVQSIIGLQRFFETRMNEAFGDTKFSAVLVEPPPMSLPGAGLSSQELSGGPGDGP

BMI1 (from UniProt P35226 1-326)
binding [1]: binds

HHV5-UL97 (from UniProt P16788 1-707) (enzyme)
binding [2]: binds

SPOP (from UniProt O43791 1-374)
binding [1]: binds

TRIM28 (from UniProt Q13263 1-835)
binding [1]: binds
